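Primary screen of methionyl-tRNA synthetase; the read-out is not stated. Target: Methionyl-tRNA synthetase (putative), Leishmania donovani (UniProt E9BF75). The test concentration is not given. The values are filed as inhibition. Of about 68,000 compounds tested this way, about 24 (0.035%) reached 50% or more in at least one test.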

Protein sequences, listed by entry. Tags and fused reporters are not part of them.
UniProt E9BF75, entry or part of it: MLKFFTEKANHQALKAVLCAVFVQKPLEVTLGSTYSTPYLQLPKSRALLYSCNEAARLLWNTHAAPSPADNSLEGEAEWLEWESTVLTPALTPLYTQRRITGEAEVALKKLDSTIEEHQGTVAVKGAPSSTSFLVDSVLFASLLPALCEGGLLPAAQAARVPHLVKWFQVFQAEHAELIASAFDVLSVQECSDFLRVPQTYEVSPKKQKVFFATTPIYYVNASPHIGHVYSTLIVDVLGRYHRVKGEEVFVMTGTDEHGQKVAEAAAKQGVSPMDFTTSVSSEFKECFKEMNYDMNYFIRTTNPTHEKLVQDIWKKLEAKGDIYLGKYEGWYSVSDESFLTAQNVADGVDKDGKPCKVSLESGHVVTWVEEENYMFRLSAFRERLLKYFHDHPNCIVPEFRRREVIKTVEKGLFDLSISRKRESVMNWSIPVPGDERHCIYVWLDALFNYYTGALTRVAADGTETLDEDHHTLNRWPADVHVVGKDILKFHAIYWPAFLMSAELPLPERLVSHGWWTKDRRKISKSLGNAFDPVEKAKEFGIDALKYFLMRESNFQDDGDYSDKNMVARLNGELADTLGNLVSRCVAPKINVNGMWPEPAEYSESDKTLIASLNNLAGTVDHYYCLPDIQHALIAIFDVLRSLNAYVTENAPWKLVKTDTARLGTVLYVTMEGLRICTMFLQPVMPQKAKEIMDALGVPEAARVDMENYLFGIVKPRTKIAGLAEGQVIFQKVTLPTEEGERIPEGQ

All values are in %.
How 0% and 100% were set is not recorded. Most values in the screen are low, and negative values occur.
The compounds are a random part of those screened.

Cc1cc(CN(C)C(=O)c2ccc(Cl)c(N3CCCC3=O)c2)no1 gave 3.352%.
CNC(=O)C1Cn2ccnc2C2(CCN(Cc3ccncc3)CC2)O1 (stereo unspecified) gave 7.463%.
Cc1cccc(C)c1Oc1ncccc1CNC(=O)C1(C)CCCNC1 (stereo unspecified) gave 6.452%.
CCNc1ncc(C(=O)NCc2cccc(OC(F)(F)F)c2)cn1 gave 16.82%.
CCn1nc2c(cc1=O)CN(CCCN1CCCC1=O)CC2 gave 7.055%.
CC(C)NC(=O)CN(C)C(=O)c1c(Cl)c2ccccc2n1C gave 10.86%.
O=C(COC1CCCC1)NCCCn1nc2ccccn2c1=O gave 9.763%.
Cc1cc(C[C@@H]2COC[C@@H]2NC(=O)CN2CCCC2)on1 gave 7.389%.
CN(Cc1cc(C2CC2)on1)C(=O)CN1CC(c2ccccc2)CC1=O (stereo unspecified) gave 7.326%.
O=C(NCc1ccccc1CN1CCC(O)CC1)Nc1ccncc1 gave 2.536%.
Cc1cc(C)c2nc(CN3C[C@H](CCO)[C@@H](N)C3)cc(O)c2c1 gave 14.84%.
COc1ccc(C2CCCN2C(=O)NCCNc2ncccn2)cc1 (stereo unspecified) gave 8.374%.
Cc1nc2cc(C(=O)N3C[C@@H](C(=O)O)[C@H](c4ccncc4)C3)ccc2[nH]1 gave 12.32%.
CC(C)O[C@H]1CN(C(=O)CCN2CCCCO2)C[C@@H]1O gave 3.343%.
Nc1nc2nc(C3CCCN(C(=O)c4cncs4)C3)ccc2s1 (stereo unspecified) gave 10.94%.
CC(C)C1CN(Cc2nccn2C(C)C)CCC(=O)N1CC1CC1 (stereo unspecified) gave 4.897%.
CC(C)c1nnc2n1CCN(Cc1cc(Cl)c3c(c1)OCCO3)C2 gave 15.72%.
Cc1cc(C)n(CC2CCCN2C(=O)Cc2c(C)nc(C)[nH]c2=O)n1 (stereo unspecified) gave 8.282%.
COc1ccc(CCCN2C(=O)O[C@@H]3CN(C4CCOCC4)C[C@@H]32)cc1 gave 8.75%.
CN(C(=O)c1cccnc1OCC(F)F)c1ccc2c(c1)CCO2 gave 15.19%.
Cc1ccc(C(=O)Nc2cn[nH]c2)cn1 gave 17.35%.
CCc1nccn1C1CCCN(C(=O)CCc2nc(C(C)C)no2)C1 (stereo unspecified) gave 0%.
COCCc1nc(-c2cnn3c(C)cc(C)nc23)no1 gave 20.96%.
CC(C)c1cc(N2CCCC3(CCN(C)C3)C2)ncn1 (stereo unspecified) gave 16.11%.
COC1(CNC(=O)c2ccsc2)CCSC1 (stereo unspecified) gave 13.24%.
Cc1c(CNC(=O)C2CCCN2C(=O)C2CC2)oc2ccccc12 (stereo unspecified) gave 10.05%.
NC1CCCc2c1cnn2-c1cc(F)cc(F)c1 (stereo unspecified) gave 12.47%.
CCOc1ccc(N2CCCN=C2NC(=O)c2ccc(OC)cc2)cc1 gave -9.799%.
O=C(NC1CCCC1)c1cc(C2CCCNC2)n[nH]1 (stereo unspecified) gave 20.25%.
CCc1ccc(C(=O)NCC2CCCN2CC)o1 (stereo unspecified) gave 9.218%.
Cc1nc(C2(O)CCCNCC2)sc1CCOc1ccccc1F (stereo unspecified) gave 10.97%.
COc1ccc2c(c1)CCCC2CC(=O)O (stereo unspecified) gave 7.553%.
CN(C[C@H]1CN2CC[C@H]1C[C@@H]2CNC(=O)c1ccco1)c1ccccc1 gave 6.441%.
c1ccc(Cc2nnc(CN3CCOC(Cn4cccn4)C3)o2)cc1 (stereo unspecified) gave 9.296%.
CCc1ccc(NC(=O)CCN2CC(n3nc(C)cc3C)C2)cc1 gave 6.349%.
CC(C)c1cc(C(=O)N(Cc2ccncc2)CC2CCCO2)no1 (stereo unspecified) gave 12.99%.
Cn1cc(CCC(=O)N2C[C@H]3CC[C@@H]2CN(Cc2cccnc2)C3)cn1 gave 6.516%.
CNc1ncc(CN(C)C(=O)CCc2cc3n(n2)CCCNC3)cn1 gave -4.839%.
CCNC(=O)C1CCN(Cc2csc(-c3ccc(C)o3)n2)CC1 gave 15.28%.
Cc1ccc(S(=O)(=O)N2CCC(Cn3cc(C(C)(C)N)nn3)CC2)s1 gave 7.781%.
Cc1cccc(CN2CC[C@@H]3[C@@H]2CCN3C(=O)Cc2cccs2)n1 gave 12.32%.
Cc1cc(C)n(CC(=O)N2CCC(NS(=O)(=O)c3ccccc3)CC2)n1 gave 19.39%.
Cc1cc(NCc2ccc(CS(N)(=O)=O)cc2)nc(C)n1 gave 8.122%.
COc1ccc(OCc2cc(C(=O)N3CCSCC3)n[nH]2)c(Cl)c1 gave 0.5222%.
O=S(=O)(NCC1(O)CCCC1)c1ccccc1Br gave 12.23%.
CCCN1CCCn2nc(CNC(=O)CN(C)C3CCCC3)cc2C1 gave 11.5%.
COc1cc(Br)c(CNC(C)c2nnc3n2CCC3)cc1OC (stereo unspecified) gave 6.267%.

Once more, the final 4:

SMILES,inhibition
COc1ccc(OCc2cc(C(=O)N3CCSCC3)n[nH]2)c(Cl)c1,0.5222
O=S(=O)(NCC1(O)CCCC1)c1ccccc1Br,12.23
CCCN1CCCn2nc(CNC(=O)CN(C)C3CCCC3)cc2C1,11.5
COc1cc(Br)c(CNC(C)c2nnc3n2CCC3)cc1OC (stereo unspecified),6.267

Measurements from “University of Dundee, Small-Polar-MMV Screening Library” (2021), ChEMBL document CHEMBL3988442.